Binding data for two molecules are collected here from US20130058934A1.

Protein sequences, listed by entry. Tags and fused reporters are not part of them. Residues count along the entry.
UniProt O75581, residues 20-1370: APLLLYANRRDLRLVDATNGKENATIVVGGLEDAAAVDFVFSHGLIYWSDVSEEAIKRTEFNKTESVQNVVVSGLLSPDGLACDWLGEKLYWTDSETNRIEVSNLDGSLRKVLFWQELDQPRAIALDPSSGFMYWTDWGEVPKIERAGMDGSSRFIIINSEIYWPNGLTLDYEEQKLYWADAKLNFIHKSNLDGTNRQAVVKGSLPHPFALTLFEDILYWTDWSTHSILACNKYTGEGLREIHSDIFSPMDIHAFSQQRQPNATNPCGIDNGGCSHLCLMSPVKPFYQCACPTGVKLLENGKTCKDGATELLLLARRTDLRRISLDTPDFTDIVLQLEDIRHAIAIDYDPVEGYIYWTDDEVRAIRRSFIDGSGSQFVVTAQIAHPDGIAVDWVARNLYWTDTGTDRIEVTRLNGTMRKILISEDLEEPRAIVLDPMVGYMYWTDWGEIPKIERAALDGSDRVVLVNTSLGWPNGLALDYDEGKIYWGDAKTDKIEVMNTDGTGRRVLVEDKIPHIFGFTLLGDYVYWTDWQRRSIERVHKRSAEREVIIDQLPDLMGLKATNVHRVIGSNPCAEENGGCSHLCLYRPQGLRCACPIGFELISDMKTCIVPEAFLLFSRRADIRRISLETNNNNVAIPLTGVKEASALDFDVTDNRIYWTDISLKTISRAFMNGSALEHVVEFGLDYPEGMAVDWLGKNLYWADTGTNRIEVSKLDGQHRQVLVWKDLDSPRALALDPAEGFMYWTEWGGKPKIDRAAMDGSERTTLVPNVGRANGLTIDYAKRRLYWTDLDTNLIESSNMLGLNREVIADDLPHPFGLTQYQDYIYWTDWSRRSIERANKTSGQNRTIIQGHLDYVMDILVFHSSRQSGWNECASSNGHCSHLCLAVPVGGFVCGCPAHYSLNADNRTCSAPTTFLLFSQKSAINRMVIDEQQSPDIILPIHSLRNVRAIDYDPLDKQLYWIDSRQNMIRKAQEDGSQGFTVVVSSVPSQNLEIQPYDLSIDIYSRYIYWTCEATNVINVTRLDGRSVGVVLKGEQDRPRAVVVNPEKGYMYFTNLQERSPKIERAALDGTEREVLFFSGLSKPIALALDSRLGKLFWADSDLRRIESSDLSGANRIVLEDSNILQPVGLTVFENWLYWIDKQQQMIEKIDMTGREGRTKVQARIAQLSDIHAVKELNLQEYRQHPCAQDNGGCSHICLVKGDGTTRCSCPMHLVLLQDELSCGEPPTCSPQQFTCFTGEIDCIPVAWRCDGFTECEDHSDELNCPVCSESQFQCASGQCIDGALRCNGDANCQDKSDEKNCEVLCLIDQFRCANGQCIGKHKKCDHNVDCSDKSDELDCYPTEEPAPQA

For this assay, the target named is LRP6-Fc (R&D Systems, catalog No: 1505-LR) (human) (UniProt O75581). Put plainly: Proteon XPR36 kinetics with LRP6-Fc.

Residue numbers refer to the chain shown, from its start. Names and notes keep the numbering of the source. These are yes or no findings as the source states them, for the method shown. Some results given as binding are weak or reduced against the parent protein; the word gives no strength.

B1: scFv06475 VH:G34V (scFv, name in Kabat numbering, V domains shown)
VH: QVQLKESGPALVKPTQTLTLTCTFSGFSLSNRGVGVGWIRQPPGKALEWLAWIDWDDDKSYSTSLKTRLTISKDTSKNQVVLTMTNMDPVDTATYYCARMHLPLVFDSWGQGTLVTVSS
VL: DIVLTQSPATLSLSPGERATLSCRASQFIGSRYLAWYQQKPGQAPRLLIYGASNRATGVPARFSGSGSGTDFTLTISSLEPEDFATYYCQQYYDYPQTFGQGTKVEIK
Consider B1, for which the binding entry was “binds”.

B2: scFv06475 VH:I37F (scFv, name in Kabat numbering, V domains shown)
VH: B1 VH with V34G, I39F
VL: B1 VL
Take B2: the binding entry was “binds”.
